Source: publication PMC4858745
Results are given in words; binding and its absence hold for the method and conditions named. Binding seen in cells or lysates may run through a third protein. Some entries that bind do so weakly or less than the wild type. For part of these data: Tags and fused reporters may be left off the sequences shown.

Amino acid sequences for entries named in this document (tags omitted). Residues count along the entry.
UniProt Q9QUK6, residues 26-835: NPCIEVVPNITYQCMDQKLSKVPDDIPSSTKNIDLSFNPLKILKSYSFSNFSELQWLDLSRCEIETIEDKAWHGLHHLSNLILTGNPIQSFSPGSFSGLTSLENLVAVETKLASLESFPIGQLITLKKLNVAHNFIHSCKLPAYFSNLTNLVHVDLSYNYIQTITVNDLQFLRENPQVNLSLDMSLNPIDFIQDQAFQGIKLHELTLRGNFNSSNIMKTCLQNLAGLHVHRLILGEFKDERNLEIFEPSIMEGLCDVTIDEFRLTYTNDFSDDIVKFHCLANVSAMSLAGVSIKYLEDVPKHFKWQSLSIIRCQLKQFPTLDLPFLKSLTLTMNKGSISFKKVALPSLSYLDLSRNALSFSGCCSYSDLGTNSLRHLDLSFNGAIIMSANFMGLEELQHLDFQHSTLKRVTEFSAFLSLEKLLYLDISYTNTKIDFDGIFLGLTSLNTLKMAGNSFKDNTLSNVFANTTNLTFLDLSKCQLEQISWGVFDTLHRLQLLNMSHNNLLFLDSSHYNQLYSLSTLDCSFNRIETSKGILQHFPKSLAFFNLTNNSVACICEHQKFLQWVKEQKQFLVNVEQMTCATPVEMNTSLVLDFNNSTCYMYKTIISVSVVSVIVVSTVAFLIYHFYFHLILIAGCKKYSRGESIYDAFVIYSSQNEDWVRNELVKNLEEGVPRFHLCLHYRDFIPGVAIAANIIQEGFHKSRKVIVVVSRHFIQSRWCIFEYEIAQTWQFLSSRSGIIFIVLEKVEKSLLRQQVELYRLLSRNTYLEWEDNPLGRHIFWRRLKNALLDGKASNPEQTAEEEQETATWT

Tests used:
[1] = biological target: T1, HA-tagged WT Fcα/μR (CD351) (UniProt Q2TB54); assay: co-IP; Ba/F3 transfectants lysed in 1% digitonin, 0.12% Triton X-100, 150 mM NaCl, 20 mM triethanolamine; IP anti-HA and blot anti-Flag by the legend (the methods say IP anti-Flag, blot anti-HA); with or without LPS stimulation
T1 sequence: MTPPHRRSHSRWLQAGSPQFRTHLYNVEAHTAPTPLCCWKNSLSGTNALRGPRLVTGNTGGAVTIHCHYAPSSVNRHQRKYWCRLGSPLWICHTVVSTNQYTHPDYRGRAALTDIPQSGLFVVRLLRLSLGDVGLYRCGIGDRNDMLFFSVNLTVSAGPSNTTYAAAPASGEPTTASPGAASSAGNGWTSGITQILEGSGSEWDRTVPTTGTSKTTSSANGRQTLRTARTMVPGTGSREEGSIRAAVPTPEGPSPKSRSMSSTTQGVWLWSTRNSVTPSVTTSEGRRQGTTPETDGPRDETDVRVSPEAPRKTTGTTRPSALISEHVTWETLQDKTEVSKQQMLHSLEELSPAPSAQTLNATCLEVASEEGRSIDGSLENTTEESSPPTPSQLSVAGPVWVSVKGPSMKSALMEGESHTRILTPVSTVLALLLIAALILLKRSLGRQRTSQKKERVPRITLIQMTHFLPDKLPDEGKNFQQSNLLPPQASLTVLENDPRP

Flag-tagged TLR4 = Flag-tagged TLR4 (UniProt Q9QUK6); assay: co-IP; Ba/F3 transfectants, with or without Fcα/μR WT, TM-mt or ΔCyt, stimulated with 1 μg/ml LPS for 10 or 30 min; lysed in 50 mM Tris-HCl pH 7.6, 150 mM NaCl, 25 mM CaCl2, 0.5% Triton X-100; IP anti-Flag, blot anti-GFP
[2] = biological target: T2, Fcα/μR (CD351), endogenous in primary MZ B cells (mouse (endogenous in MZ B cells)) (UniProt Q2TB54); assay: proximity ligation; MZ B cells from WT and Fcα/μR-KO mice fixed with acetone; anti-Fcα/μR TX57 and rabbit anti-TLR4 (ab13556); Duolink in situ PLA; fluorescence microscopy
T2 sequence: T1 sequence

Substance | binding [1] | binding (Flag-tagged TLR4) | binding [2]
Flag-tagged TLR4 (from UniProt Q9QUK6 26-835) (receptor) | binds | binds | –
TLR4, endogenous in primary MZ B cells (from UniProt Q9QUK6 26-835) (receptor) | – | – | binds
